Experimental findings from patent US10538561B2 (priority 2015, dated 2020) are described below.

A short description of series [1]: Maximum feasible dose (MFD). Further details: species or system Balb/c mouse.
The nature of a further series: peptide synthesis. The following applies: whole synthesis, mobile phase B 0.1% TFA in ACN, run time 30 min.

No end group written: not given here.

In the case of “H-WVQRVVEKFLK-OH [IS181, H-Trp-Val-Gln-Arg-Val-Val-Glu-Lys-Phe-Leu-Lys-OH]”, the “MFD in Balb/c mouse” value is 100 mg/kg in series [1] (0.9% NaCl (for IV)); 50 mg/kg (i.m.) in series [1] (10% v/v Propylene glycol in 0.9% NaCl, i.m.); 100 mg/kg (sc) in series [1] (10% v/v Propylene glycol in 0.9% NaCl, sc).
As to WVQRVVEKFLK, the “final HPLC purity” value in “peptide synthesis” was “Purity NLT 98.0%”.
